Our source for the z-score values is PubChem BioAssay AID1508600 (Functional Genomics Laboratory (NCATS/FGL), 2020).

The whole screen tested about 53,000 sequences, of which about 3,700 (7%) were called active.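 The calls were made as follows: active = gene knockdowns whose robust z-score for IL-1 alpha signal is at least 2 or at most -2, so actives lie on both sides; inactive = the rest.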 The list shows a part of the results.

This experiment is described as follows: Components of the Cytosolic LPS Sensing Pathway: Gene Identification via Genome-wide siRNA Screen.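 Also: robust z of the log signal after scaling to non-targeting control siRNA wells of the plate.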 The following applies: RAW264.7 macrophages, IL-1a HTRF, actives lie on both sides, screened at 100 nM (by protocol), cells primed 5 h with Pam3CSK4 first. The method in brief:
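RAW264.7; siRNA 100 nM final, RNAiMAX, 48h 37 degrees C; Pam3CSK4 5 h; LipidA + TransIT-TKO 24 h; IL-1a HTRF; CellTiter-Glo viability; robust z vs negative-control median.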
(TR-FRET usually uses a lanthanide donor and a delayed reading to cut background.)
Regarding GGAUUUGAAGAAAGAUGGATT against Ano5, the z-score is inactive: 0.679.
The result for CCAUAUUAACUACAACACCTT against Lrrc4 reads inactive: 0.449; that for GGGCUACCUCAGUUUAAACTT against Spic, inactive: 0.763.
The result for GGAUGUGGACUCAAAGAAATT against Tmem38a reads inactive: -0.683; that for GGUAGAUAUCAAUAAAGGATT against Olfr794, inactive: 0.939; that for GGUGGAUCACAGGUUCAUGTT against Rhd, inactive: -1.37.
On to CGCGCUUCUACUUUUUUUATT against Nkx2-1, for which the z-score is inactive: 0.406.
The result for GGUUUUCCUGCAUUUUUUATT against Rhou reads inactive: 0.0175.
The result for GGUGACCACAGACAACAAGTT against Glra4 reads inactive: -0.288; that for CCGUCAUCCGAGCAAUCAGTT against Kcnq5, inactive: -0.248.
The result for CGGCAUCUUUUUGAAUCAATT against Ccdc88c reads inactive: 1.11; that for GGUACUGUGCCUAGCCUUATT against Adrb2, inactive: 0.525; that for GCCACUUCCGGCCUUUUUATT against Zfp422, inactive: -0.367.
With GGUUCUCUGAUACCCACUCTT against Mgat4e, the z-score was inactive: 0.44.
Regarding GCACCUAUACCGCCGUAUCTT against Agpat3, the z-score was inactive: -0.176.
Consider GGGACUCUUGUUGGAUCCATT against Htr1d, for which the z-score was inactive: -0.28.
GUGGAAAAUUGAAGGGACGTT against Ndufb3: the z-score was active: 3.69.
As to GGAUGAAAUUGUGUUAUCUTT against Snrk, the z-score was inactive: -0.371.
As to GCUAUCCGGAAAGCGAUCATT against Anxa3, the z-score was inactive: -1.41.
For the sequence CGCAUUCUAUUACUGUUACTT against Stxbp3, the z-score was inactive: -1.02.
Regarding GGACUAUGAACCUACCAAATT against Rala, the z-score is inactive: 0.092.
For GGGAUCAAUGUCAUCCUUUTT against Nif3l1, the z-score was inactive: -0.442.
The result for GGGUAUCAGUACCAAUGUUTT against Lrrc19 reads inactive: 0.78; that for GGUGGAACUUCUAUACAAATT against Thbs1, inactive: 1.25.
Then GGUUCUGAAGAUGGAGGUUTT against Ttbk2, with inactive: 1.22; and GGAGUUUUCUUCAACUGGGTT against Atp6v0c, with inactive: -1.06.
Then GCGCACUGAGAUUGAAGAATT against Plcd4, with inactive: 0.326.
In the case of CCUAAGAUUUUGGAACAAATT against Cenpm, the z-score is inactive: -0.47.
Then GAAAGAUGGAGACACCCUCTT against Pigx, with inactive: 0.193.
As for GUCCCAAUGCUCAAAAAAATT against Sugp1, the z-score is inactive: -0.271.
The result for GGAGGGACCAGAAAUAAUUTT against Snx18 reads inactive: 1.18; that for GCCUGAAGAUGAUUCGAUUTT against Gbgt1, inactive: 0.572; that for GGAGGAAUCAAAGGCUCCUTT against Slc39a5, inactive: -0.319.
For the sequence GGAGCAGAAUGAGAAGACUTT against Marchf8, the z-score was active: 2.16.
As to GGAUGGGUCAACAUUCUACTT against V1rb5, the z-score was inactive: -0.411.
Regarding CCAUGUACCAGAUUAAGUATT against Krt8, the z-score was inactive: 1.16.
Regarding GCAGUGGACUUUUUCUUAGTT against Nptx1, the z-score was inactive: 0.683.
Then GGAGACCUCCUUUUCCAUUTT against Slc41a1, with inactive: -0.603.
Regarding CCAUCAUCGAUGUGCCCUATT against Olfr355, the z-score is inactive: 1.89.
The result for GGAACUCCUGGAGCAGAACTT against Tbc1d10b reads active: -2.52.
Then GGUAUAGUGGAAGAAUACCTT against Bmpr1b, with inactive: -0.955.
Then GGUACUACGACCAUCUCCUTT against Tnfrsf13b, with inactive: 1.11; and GCACACAACUGGUAGUUUUTT against Chst1, with inactive: -0.0596; and UUCAUGUAGGGUGUCUCUUTT against Olfr180, with inactive: 0.407.
For the sequence GCAAAAACCUAUAGGAAAATT against Srpk2, the z-score was active: 2.27.
Then GGAAUGAGAAGGAAAAGGUTT against Arpc4, with inactive: 1.67; and GCUCUGUGCACUUAAGAGATT against Mbd3l2, with inactive: 0.246.
Consider CCCUCCACAGAUGAACACCTT against Lgals4, for which the z-score was active: -2.02.
Then GGAGAAUCCUUCCUUGUUUTT against Il2rg, with inactive: 1.41.
As for GCAGCUACUGUGUUACAAATT against Afap1l1, the z-score is inactive: 1.17.
Then CCUAGAGGAAGACUUAUGUTT against Fhl2, with inactive: 0.637; and “GGGUCAAUGGUAUUCCCAGTT against 4932411K12”, with inactive: 0.394; and GGAUCACUCCAGGAAGCAATT against Pdlim3, with inactive: 0.14.
The result for GGAUGGCUCUAUGCCAAGATT against Mrps27 reads inactive: 0.992.
Take CGGGACAUUCGUGAUCUUATT against Tmem114: the z-score was active: -2.38.
With GGUUCUCAUACAUAAACAATT against Mri1, the z-score is active: -2.87.
The result for GGACACCAACUUUCUGCCCTT against Ccn5 reads inactive: -0.0244.
Then GGAAAUUGCUAUUGCUUCATT against Olfr837, with inactive: -0.876; and GGCCGUGAUCUUGGAAUAUTT against Pop4, with inactive: -0.296.
Then GGACAAAGAGUGAAGCCAGTT against Reg4, with inactive: -1.52; and GGAUCUCGAAGUUACUGCATT against Dnajc5b, with inactive: 1.77; and AGACCUUGAGAACAUUCUUTT against Nkx2-6, with inactive: 0.925.
Consider GGUGGUUACCAUCUUACUUTT against Trhr, for which the z-score was inactive: 0.532.
Then CCAGUAGUAUUUAUUGCUUTT against Tcf7l2, with inactive: 0.278; and UGCGAGCUCACUGAUGUACTT against Adam34l, with inactive: -1.69.
The result for GGUCUUUGCUACCAACCUGTT against Fignl1 reads active: -2.15; that for GAUGGUCAUUGAUGUCCUUTT against Rps24, inactive: -0.694; that for GGGAAACACAGAUUUCUUUTT against Cadm4, inactive: -1.07.
The result for GGAGAGAUUUUUCUAUCAUTT against Rab11fip3 reads inactive: -0.361.
Consider GCUCAGGAAUUUGACACCATT against Adgrl3, for which the z-score was inactive: -1.33.
The result for GGUGAUGGUGUAUGUUGCUTT against Olfr309 reads inactive: -1.08; that for GCUCUUUGGUCGAGAACCATT against Mup5, active: -2.42; that for AUGUUUGAGAGCGACUUUATT against Fam71b, inactive: -1.59.
Consider “GGUCAUUGAAGUGCAAGCCTT against 4931406C07Rik”, for which the z-score is inactive: 0.18.
The result for CCCUCUUAAGACAUGCAGGTT against Cltb reads inactive: -0.156; that for GCUCUACCUCAGAUAAAGGTT against Banf2, active: -2.45; that for GGGCAAAGUUGAAUAUCUGTT against Cbx7, inactive: -1.
Then GUUUCCUUGUGCUAAUGUUTT against Olfr1199, with inactive: 1.15.
Turning to GGAAGUGGAAUUCUUCAGUTT against Rap1gds1, the z-score is inactive: 0.481.
Then GGGAUGAGAACAAGAAUGUTT against Moap1, with inactive: 0.164.
Then GCUUGGUCAUUUUAAUAGGTT against Zscan29, with inactive: -0.527; and GCCUUUAAUACAUAGGCUUTT against Cxcl9, with inactive: -0.381; and CCUGUCAGUCCAAUCAAUUTT against Ldlr, with inactive: 0.426.
Then GCACUCAAGACCUGUAUGATT against Cldn18, with inactive: 0.627; and GCUGAAAGAUUUACUGCCCTT against Bhlhe41, with active: 2.95.
For GCUGCUUCCUCCUCAUUCUTT against Olfr934, the z-score is inactive: -0.394.
The result for GGUGCAUUCACGUAUUUACTT against Olfr1537 reads inactive: 1.25.
For GGUUGUUUGGAAAUCAAAUTT against Crisp3, the z-score was inactive: 0.971.
For the sequence GGCAUGACUGGACUGAAAATT against Ythdf3, the z-score is inactive: -0.976.
For GUUCCUCUUCGUCAGCACATT against Gja4, the z-score is inactive: 0.173.
The result for GGCCGAUGUUUAUUCUUUUTT against Lrrk2 reads inactive: 0.792; that for GGUAACUGUUACACAAAUCTT against Tmem161b, inactive: -0.291; that for GGGAAGCUCGUUUUAACAATT against Suds3, inactive: 1.32.
CGAAGUUAUGCCCAGAAUGTT against Ints14: the z-score is inactive: 0.0184.
The result for GGCGGCACGUUCACCUAAATT against Rnps1 reads inactive: 1.86.
Then GGUUGUUGGACCAGUGUAUTT against Ranbp6, with inactive: -0.0455.
With CGGCUCAUCCGAUAUAUCCTT against Hcn2, the z-score was inactive: -1.39.
Then GCAUCAAAAACGAGCCCUUTT against Cyth1, with inactive: -0.644; and GGGAUGAGAAAGUUCAGUUTT against Cox4i1, with inactive: 0.321.
The result for GAGCUUCUGGCUGAGAUAATT against Espn reads inactive: -0.388.
Then GCCGAUUGUCCUAUCUCCATT against Spg7, with inactive: 1.63; and GGAUGUGCUAUCGAAGACATT against Gm11992, with inactive: 1.93; and GGAAGACACAGUUUCUCUUTT against Hs6st3, with inactive: 0.532.
As for CCUAUCUUGUCCGGUUUACTT against Cyb5rl, the z-score was active: 3.99.
For the sequence GGAGCUGUUGAAAGAAUAUTT against Relt, the z-score is active: 2.63.
The result for GCGACUAGAGAUCAAUUGCTT against Banp reads inactive: 1.1.
As for GCCAAUGAUAGAUUUGAACTT against Fam204a, the z-score is inactive: -0.555.
